Measurements from PubChem BioAssay AID1671190 (National Center for Advancing Translational Sciences (NCATS), 2021).
In all, about 580,000 compounds went through this assay and about 6,100 (1.1%) were called active. Inconclusive results, whose numbers are uncertain, are shown with a selection of clear calls. The call rests on the fitted dose curve; in most records, active means well fitted inhibition curve with a large enough effect; inconclusive means small, poorly fitted or top-dose-only effect, or another doubt; inactive means no such curve, though single readings can be large or run the other way. Where the call is inconclusive, the potency comes from a doubtful curve fit.

Amino acid sequences for entries named in this document (tags omitted). A change or cut given only in a name is not applied to a line headed by its entry.
UniProt P18054: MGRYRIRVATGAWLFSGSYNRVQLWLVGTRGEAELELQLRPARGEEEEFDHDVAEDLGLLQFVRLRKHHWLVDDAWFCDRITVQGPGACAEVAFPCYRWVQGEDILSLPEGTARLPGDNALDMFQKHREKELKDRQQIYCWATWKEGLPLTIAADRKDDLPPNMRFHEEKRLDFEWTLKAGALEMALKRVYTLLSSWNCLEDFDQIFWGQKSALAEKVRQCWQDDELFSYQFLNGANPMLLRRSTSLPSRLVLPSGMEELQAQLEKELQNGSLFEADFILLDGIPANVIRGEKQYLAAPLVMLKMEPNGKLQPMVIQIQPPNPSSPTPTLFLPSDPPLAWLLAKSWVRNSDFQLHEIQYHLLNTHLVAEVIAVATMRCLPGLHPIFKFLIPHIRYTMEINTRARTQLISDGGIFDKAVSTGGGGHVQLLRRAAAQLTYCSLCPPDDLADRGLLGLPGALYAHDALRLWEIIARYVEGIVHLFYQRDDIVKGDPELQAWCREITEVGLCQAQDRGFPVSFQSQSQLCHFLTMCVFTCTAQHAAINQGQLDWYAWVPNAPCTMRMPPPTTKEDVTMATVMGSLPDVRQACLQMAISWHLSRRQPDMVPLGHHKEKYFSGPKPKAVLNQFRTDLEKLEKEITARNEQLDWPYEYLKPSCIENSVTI

What follows are compounds tested against Polyunsaturated fatty acid lipoxygenase ALOX12 (Homo sapiens) (UniProt P18054) (assay: Primary qHTS assay for inhibitors of human arachidonate 12S-lipoxygenase (ALOX12): Round 2). Settings: purified 12hLO, xylenol orange hydroperoxide absorbance; activity change, negative = inhibition: at 108 µM (top of the series) unless noted.
How it was run: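 Purified human 12hLO (150 nM final) in 25 mM Hepes, 0.01% Triton X-100, pH 7.0 was preincubated 15 min at room temperature with compound. Then 40 uM arachidonic acid was added, 30 min. Hydroperoxide was read by Fe-XO absorbance ratio 573/405 nm.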
On the % scale 0 is the no-effect control and ±100 the full control effect; potency means the concentration at half of the fitted maximal effect.

SMILES | Potency | activity change, negative = inhibition
CCOC(=O)c1c(C)[nH]c2c1cc(O)c1ccccc12 | inconclusive: 12.6 µM [inhibitor, partial curve, poor fit] | 
O=C(NC1CCCN(Cc2ccc(Cl)cc2)C1)c1ccccc1C(F)(F)F (stereo not drawn) | inconclusive: 89.1 µM [inhibitor, partial curve, poor fit] | 
O=C(CN1CCN(c2ncccn2)CC1)N1CCCC1 | inconclusive: 1.12 µM [inhibitor, full curve] | 
CCCN(C(=O)c1cc(S(=O)(=O)N2CCc3ccccc32)cn1C)c1ccc(OCC)cc1 | inactive | 
COCCN(C(=S)Nc1cc(C)cc(C)c1)C(C)c1cccnc1 (stereo not drawn) | inconclusive: 10 µM [inhibitor, full curve, poor fit] | 
CC(=O)c1cccc(NC(=O)CN2C(=O)NC3(CCC(C(C)(C)C)CC3)C2=O)c1 (stereo not drawn) | inactive | 
Cc1ccc(Cl)cc1N1CCN(c2ncnc3c2nc2n3CCCC2)CC1 | inactive | 
O=[N+]([O-])c1ccc(O)c(Nc2ncnc3ccccc23)c1 | inconclusive: 44.7 µM [inhibitor, partial curve, poor fit] | 
CCOC(=O)N1CCN(C(=O)NC2CCCCC2)CC1 | inactive | 
CC(=O)Nc1ccc2c(c1)nc1n2[C@@H](CNC2CCOCC2)COC1 | inactive | 
CCCn1cnc2cc(NCc3cccc(OC)c3)ccc21 | inactive | 
CCOc1ccc(C2/C(=C(/O)c3ccc(S(=O)(=O)N4CCCCC4)cc3)C(=O)C(=O)N2CCCOC)cc1OC (stereo not drawn) | inconclusive: 12.6 µM [inhibitor, full curve] | 
COc1ccc(CNC(=O)Cn2c(=O)oc3cc(S(=O)(=O)NCc4ccccc4)ccc32)cc1 | inconclusive: 112 µM [inhibitor, partial curve, poor fit] | 
Cc1cc(OC(=O)c2ccc(Cl)cc2)cc(=O)n1C |  | inconclusive: -38.7% [inhibitor]
Cc1ccc(-n2cc(CNCCn3nc(C)cc3C)c(-c3ccc(F)cc3)n2)cc1 | inactive | 
O=C(CC1SCCNC1=O)Nc1cc(Cl)ccc1Cl (stereo not drawn) | inactive | 
CCOc1ccc(C2C(C(=O)Nc3ccccc3)=C(C)Nc3nc(-c4ccccc4Cl)nn32)cc1OC (stereo not drawn) | inactive | 
CC(SCc1ccccc1)C(=O)c1c[nH]c2ccccc12 (stereo not drawn) | inactive | 
Cc1ccc(S(=O)(=O)N2CCOC23CCN(C(=O)c2cc(Cl)ccc2Cl)CC3)cc1 | inconclusive: 7.94 µM [inhibitor, partial curve, poor fit] | 
CCN(C[C@H]1N[C@@](C)(C(=O)OC)[C@H]2C(=O)N(Cc3ccccc3)C(=O)[C@@H]12)C(=O)Nc1ccc(C)cc1 | inconclusive: 39.8 µM [inhibitor, partial curve] | 
O=C(NCCSc1c[nH]c2ccccc12)c1ccc(Br)o1 | inactive | 
CCN1C(=O)[C@H]2[C@@H](c3ccc(-c4ccc5c(c4)OCO5)cc3)N[C@@](Cc3ccccc3)(C(=O)OC)[C@H]2C1=O | inconclusive: 1.41 µM [inhibitor, full curve, poor fit] | 

Three of these compounds in another layout.

| SMILES | Potency | activity change, negative = inhibition |
| --- | --- | --- |
| Cc1ccc(S(=O)(=O)N2CCOC23CCN(C(=O)c2cc(Cl)ccc2Cl)CC3)cc1 | inconclusive: 7.94 µM [inhibitor, partial curve, poor fit] |  |
| CCN(C[C@H]1N[C@@](C)(C(=O)OC)[C@H]2C(=O)N(Cc3ccccc3)C(=O)[C@@H]12)C(=O)Nc1ccc(C)cc1 | inconclusive: 39.8 µM [inhibitor, partial curve] |  |
| O=C(NCCSc1c[nH]c2ccccc12)c1ccc(Br)o1 | inactive |  |

Later entries.

SMILES | Potency | activity change, negative = inhibition
CC1CCCCC1NC(=O)CSc1nnc(-c2ccncc2)n1CCCN(C)C (stereo not drawn) | active: 0.355 µM | 
CCNC(=O)CN(CC)C(=O)c1cc2c(OC)cc(OC)c(OC)c2[nH]1 | inconclusive: 6.31 µM [inhibitor, full curve, poor fit] | 
COc1ccc2ccccc2c1C1CC(=O)N2CN(Cc3ccco3)CSC2=C1C#N (stereo not drawn) | inconclusive: 7.94 µM [inhibitor, partial curve, poor fit] | 
O=C(CN1CCN(C(=O)c2cccc(F)c2)CC1)NC1CCCCC1 | inconclusive: 35.5 µM [inhibitor, partial curve, poor fit] | 
O=C(Nc1ccc(S(=O)(=O)N2CCc3ccccc32)cc1)C(F)(F)F | inconclusive: 70.8 µM [inhibitor, partial curve, poor fit] | 
CCC(Sc1nc2nccnc2c(=O)n1Cc1ccc(OC)cc1)C(=O)Nc1ccc(OC)cc1 (stereo not drawn) | inactive | 
O=C(O)c1cc(=O)c2ccc(Cl)cc2[nH]1 | inconclusive: 1 µM [inhibitor, full curve, poor fit] | 
COC(=O)[C@@H]1C[C@H](NC(=O)c2ccc(Oc3ccccc3)cc2)CN1C | inconclusive: 39.8 µM [inhibitor, partial curve] | 
CCc1nc2c(OCC3CCCCC3)cccn2c1N(C=O)Cc1ccc(OC)cc1 | inconclusive: 39.8 µM [inhibitor, partial curve, poor fit] | 
O=C(CSc1nc2ccccc2nc1N1CCCC1)Nc1ccc(F)cc1 | inconclusive: 44.7 µM [inhibitor, partial curve, poor fit] | 
CC1(C)CC(=O)C2=C(C1)NC(=S)C(C#N)C21CCCCC1 (stereo not drawn) | active: 7.94 µM | 
COc1cc(NC(=O)C(=O)NCCc2ccccc2)ccc1N1CCCCS1(=O)=O | inactive | 
COC(=O)CSc1nc2nc(-c3cccs3)cc(C(F)(F)F)c2c(=O)[nH]1 | inactive | 
O=C(C(=O)N1CCC(Cc2ccccc2)CC1)c1cccs1 | inconclusive: 25.1 µM [inhibitor, partial curve, poor fit] | 
O=C(Cn1nc(C(F)(F)F)c2c1CCCC2)Nc1cccc(Cl)c1 |  | inconclusive: -30.6% [inhibitor]
CN(C)[C@H]1CCCCN(C(=O)c2cn(CCN3CCNCC3)nn2)C1 | inconclusive: 15.8 µM [inhibitor, full curve] | 
CCN1CCN(Cc2c(O)ccc3oc(C)c(C(=O)Nc4cccc(Cl)c4C)c23)CC1 |  | inconclusive: -45% [inhibitor]
CCN1CCN(C(=O)CN2C(=O)c3ccccc3S2(=O)=O)CC1 | inconclusive: 39.8 µM [inhibitor, partial curve, poor fit] | 
Cc1cc(C)c(COc2ccc(/C=N/n3c(C)n[nH]c3=S)cc2)c(C)c1 | inconclusive: 39.8 µM [inhibitor, partial curve, poor fit] | 
CCCNC(=O)c1cc2c(c(-c3cccc(-c4cc5ccccc5o4)c3)n1)[C@H](CCO)N(C(=O)NC(C)C)C2 | inactive | 
CCN(CCCNC(=O)COc1cc(=O)n(CC)c2ccccc12)Cc1ccccc1 | inconclusive: 2.24 µM [inhibitor, partial curve, poor fit] | 
